Over roughly 33,000 sequences, “E-score (-0.5 to 0.5)” has its median near -8e-05; the highest 2% begin near 0.23. The list shows a part of the results.

The target in the assay is T1, Nrg2 (UniProt P38082).
T1 sequence: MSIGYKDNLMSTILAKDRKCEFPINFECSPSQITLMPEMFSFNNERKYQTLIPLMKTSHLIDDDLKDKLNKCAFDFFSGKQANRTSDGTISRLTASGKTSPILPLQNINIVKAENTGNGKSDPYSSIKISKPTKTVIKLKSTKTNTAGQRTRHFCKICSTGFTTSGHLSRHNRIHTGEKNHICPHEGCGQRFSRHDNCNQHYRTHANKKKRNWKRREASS
In words: PBM E-score (8-mer binding enrichment) (E-score (-0.5 to 0.5)); higher = stronger / more preferred TF binding. The conditions noted are these: protein concentration: 100 nM; construct: GST-full length. A digest of the protocol: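 Detection of bound protein used fluorescent anti-GST, with scans normalised by masliner. The proteins were GST-tagged yeast transcription factors applied at about 100-200 nM to universal all-10-mer Agilent arrays made double-stranded by primer extension. Each ungapped eight-base word, pooled with its reverse complement, was scored with an E-score from the Universal PBM Analysis Suite.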
As to TAAACAGA, the “PBM E-score” value stood at 0.0397.
Regarding CATTCTGC, the “PBM E-score” value was determined as 0.13.
The value for AAGTGGAG was -0.0175.
Turning to AATACAAT, the “PBM E-score” value was determined as 0.106.
Turning to AACGGTGA, the “PBM E-score” value was -0.221.
The value for ATCCGTTC was 0.0535; that for CACGACGA was -0.0933.
As for CAAATTAA, the “PBM E-score” value turned out to be 0.0483.
The value for ATGAGATC was 0.0358.
The value for CAAAACGA was 0.197; that for AAGCCAAC was 0.0383; that for AATTATAG was 0.193.
For GCGTATGA, the “PBM E-score” value was -0.0972.
In the case of AACCAATG, the “PBM E-score” value was 0.109.
The value for ATCAACAT was 0.0232; that for CTAGCGAG was -0.111; that for AGGTAAGA was -0.0459.
The value for ATTTTCAC was 0.0692; that for TGCCTCCA was -0.18.
For the sequence CAGCGTGC, the “PBM E-score” value is -0.0898.
On to CCAGTCCC, for which the “PBM E-score” value was found to be 0.145.
The value for TTCGTCAA was 0.0698.
The value for CCCCATGC was -0.0199; that for AAGAACGT was 0.147.
The value for CTACTATC was 0.247; that for CAGACCCG was 0.147; that for ACGGGCAA was -0.0925.
For the sequence ATCAGTAC, the “PBM E-score” value was found to be 0.0614.
The value for GTCTAAAC was 0.102.
Take CAATTCAG: the “PBM E-score” value came out at 0.112.
For the sequence CGATCGAC, the “PBM E-score” value is 0.0314.
The value for ATTCAATA was 0.136; that for TAGCATGA was 0.149.
For TATTCTAA, the “PBM E-score” value was determined as 0.0849.
Consider TTCATCAA, for which the “PBM E-score” value was 0.202.
Turning to AGGATAAG, the “PBM E-score” value is -0.0907.
The value for CACCTGAG was -0.0648; that for CGAATATC was 0.0529.
The value for GACCAGGA was 0.0236; that for TGGGTGAA was 0.152; that for GCGGCTAA was -0.0365.
In the case of ACAGGAAT, the “PBM E-score” value is -0.149.
Consider ACCCCTCT, for which the “PBM E-score” value is -0.141.
The value for CGGCTTTC was -0.0703; that for AGCTAGAG was -0.0184.
The value for ACTCCTTC was -0.221; that for ACCGTGTG was -0.0866; that for GAGGTCTA was -0.0802.
The value for AATTACTC was 0.177.
Regarding CGCAATCC, the “PBM E-score” value is 0.0872.
The value for GTTAGGCA was -0.146; that for ACTGTCAG was 0.118.
The value for CGTTGGCA was 0.0637; that for AACATCGT was 0.0292; that for CTAGAGAC was -0.218.
The value for AACTACCG was -0.135.
CTCGGAAG: the “PBM E-score” value is -0.0167.
As for GACCTCTC, the “PBM E-score” value came to 0.00025.
The value for GATAAACC was 0.174.
The value for GGGGTTGA was 0.0292; that for ACATGTGC was -0.0218; that for CGGGTCGA was -0.181.
The value for CCTACCGA was -0.159; that for AAAGGGTG was 0.00635.
Turning to GATGCTGC, the “PBM E-score” value is -0.253.
Consider ACGGATTG, for which the “PBM E-score” value turned out to be 0.168.
The value for GCATTGCA was 0.14; that for AAGGGCAC was -0.0552.
Turning to CGGAGTCC, the “PBM E-score” value was -0.1.
With CGCGGCTA, the “PBM E-score” value was -0.0766.
As to ACGCAACC, the “PBM E-score” value was -0.0246.
On to AGCTCATG, for which the “PBM E-score” value was 0.0635.
With CTCTAAAG, the “PBM E-score” value was -0.162.
Regarding ACTCATAA, the “PBM E-score” value was 0.0387.
The value for CTGACGCC was -0.043; that for AAAGGTAG was -0.0352.
The value for CTGCCCCC was -0.326; that for ACCACCTA was 0.00251.
ATCCCTAG: the “PBM E-score” value was found to be 0.11.
As to ACGCGGTC, the “PBM E-score” value was -0.0106.
Take CACTGAAC: the “PBM E-score” value turned out to be 0.0899.
Turning to AACGAGCC, the “PBM E-score” value is -0.02.
With AGCTTGCC, the “PBM E-score” value is -0.00562.
The value for AGGACTCC was -0.295.
For the sequence CGCCCCAC, the “PBM E-score” value was 0.0629.
The value for AGTATATA was 0.327.
Turning to GCGATGGA, the “PBM E-score” value is -0.0242.
In the case of CCACTAGA, the “PBM E-score” value was -0.196.
With CCGGCTAC, the “PBM E-score” value is -0.00754.
As for AGACTGTC, the “PBM E-score” value was -0.193.
The value for ACGTGGAG was -0.112.
Take CCCACGAG: the “PBM E-score” value came out at 0.167.
The value for CTTGCCTC was -0.0299; that for CCTCTTCG was 0.0152; that for ATGCCCTA was -0.102.
Consider CCAAATAG, for which the “PBM E-score” value amounted to 0.0786.
The value for CTGAAAAC was -0.109; that for CGGTGTAC was -0.0932; that for CATAAATA was 0.046.
The value for GAGGTATC was -0.179.
The value for TCGAACGA was 0.0281; that for ATACTGAC was 0.146.
For AGAGATTA, the “PBM E-score” value stood at 0.0613.
The value for ACCCGACG was 0.00302; that for GCGCCTAA was 0.0597; that for ACTAACCA was 0.0165.
The value for CATAGGAG was -0.0429; that for ACCAATTG was -0.0349; that for ATCTGCGG was 0.229.
As to CTCACAGC, the “PBM E-score” value was determined as 0.0593.

The record behind these values is the supplement of paper PMC3334620.
